These results are taken from patent US20260201015A1.

Chains of the proteins cited; added tags and fusions are not shown. Residues count along the entry.
UniProt P12272, residues 37-70: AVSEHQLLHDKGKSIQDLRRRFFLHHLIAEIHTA

In this experiment the target is PTH related peptide (PTHrp) (UniProt P12272). As to the kind of experiment: fluorescence polarization.

Results are given in words; binding and its absence hold for the method and conditions named. Some entries that bind do so weakly or less than the wild type.

B1: PTH_B10 (RFjoint), inpainted PTH binder, SEQ ID NO: 2 (designed binder)
chain: SFELLEKLIELSKELYEVAKKYIETGDPELKKKLEEILKKIEEAYKELLESDAHPLEKALAKLILAEAYVVKSFAYISSGKDLEKAQEYLDKAKEILEELLKLLEELKKEETDPEKLEIIEELEKIAEELLKEIEE
With B1, the binding result is recorded as “binds”.
